From publication PMC5295395, “Inhibition of PlexA1-mediated brain tumor growth and tumor-associated angiogenesis using a transmembrane domain targeting peptide” (Oncotarget, 2016)
These are yes or no findings as the source states them, for the method shown. In cells and extracts the contact can be indirect. Some entries that bind do so weakly or less than the wild type.

Protein sequences, listed by entry. Tags and fused reporters are not part of them. Residues count along the entry.
UniProt Q9UIW2, residues 27-1896: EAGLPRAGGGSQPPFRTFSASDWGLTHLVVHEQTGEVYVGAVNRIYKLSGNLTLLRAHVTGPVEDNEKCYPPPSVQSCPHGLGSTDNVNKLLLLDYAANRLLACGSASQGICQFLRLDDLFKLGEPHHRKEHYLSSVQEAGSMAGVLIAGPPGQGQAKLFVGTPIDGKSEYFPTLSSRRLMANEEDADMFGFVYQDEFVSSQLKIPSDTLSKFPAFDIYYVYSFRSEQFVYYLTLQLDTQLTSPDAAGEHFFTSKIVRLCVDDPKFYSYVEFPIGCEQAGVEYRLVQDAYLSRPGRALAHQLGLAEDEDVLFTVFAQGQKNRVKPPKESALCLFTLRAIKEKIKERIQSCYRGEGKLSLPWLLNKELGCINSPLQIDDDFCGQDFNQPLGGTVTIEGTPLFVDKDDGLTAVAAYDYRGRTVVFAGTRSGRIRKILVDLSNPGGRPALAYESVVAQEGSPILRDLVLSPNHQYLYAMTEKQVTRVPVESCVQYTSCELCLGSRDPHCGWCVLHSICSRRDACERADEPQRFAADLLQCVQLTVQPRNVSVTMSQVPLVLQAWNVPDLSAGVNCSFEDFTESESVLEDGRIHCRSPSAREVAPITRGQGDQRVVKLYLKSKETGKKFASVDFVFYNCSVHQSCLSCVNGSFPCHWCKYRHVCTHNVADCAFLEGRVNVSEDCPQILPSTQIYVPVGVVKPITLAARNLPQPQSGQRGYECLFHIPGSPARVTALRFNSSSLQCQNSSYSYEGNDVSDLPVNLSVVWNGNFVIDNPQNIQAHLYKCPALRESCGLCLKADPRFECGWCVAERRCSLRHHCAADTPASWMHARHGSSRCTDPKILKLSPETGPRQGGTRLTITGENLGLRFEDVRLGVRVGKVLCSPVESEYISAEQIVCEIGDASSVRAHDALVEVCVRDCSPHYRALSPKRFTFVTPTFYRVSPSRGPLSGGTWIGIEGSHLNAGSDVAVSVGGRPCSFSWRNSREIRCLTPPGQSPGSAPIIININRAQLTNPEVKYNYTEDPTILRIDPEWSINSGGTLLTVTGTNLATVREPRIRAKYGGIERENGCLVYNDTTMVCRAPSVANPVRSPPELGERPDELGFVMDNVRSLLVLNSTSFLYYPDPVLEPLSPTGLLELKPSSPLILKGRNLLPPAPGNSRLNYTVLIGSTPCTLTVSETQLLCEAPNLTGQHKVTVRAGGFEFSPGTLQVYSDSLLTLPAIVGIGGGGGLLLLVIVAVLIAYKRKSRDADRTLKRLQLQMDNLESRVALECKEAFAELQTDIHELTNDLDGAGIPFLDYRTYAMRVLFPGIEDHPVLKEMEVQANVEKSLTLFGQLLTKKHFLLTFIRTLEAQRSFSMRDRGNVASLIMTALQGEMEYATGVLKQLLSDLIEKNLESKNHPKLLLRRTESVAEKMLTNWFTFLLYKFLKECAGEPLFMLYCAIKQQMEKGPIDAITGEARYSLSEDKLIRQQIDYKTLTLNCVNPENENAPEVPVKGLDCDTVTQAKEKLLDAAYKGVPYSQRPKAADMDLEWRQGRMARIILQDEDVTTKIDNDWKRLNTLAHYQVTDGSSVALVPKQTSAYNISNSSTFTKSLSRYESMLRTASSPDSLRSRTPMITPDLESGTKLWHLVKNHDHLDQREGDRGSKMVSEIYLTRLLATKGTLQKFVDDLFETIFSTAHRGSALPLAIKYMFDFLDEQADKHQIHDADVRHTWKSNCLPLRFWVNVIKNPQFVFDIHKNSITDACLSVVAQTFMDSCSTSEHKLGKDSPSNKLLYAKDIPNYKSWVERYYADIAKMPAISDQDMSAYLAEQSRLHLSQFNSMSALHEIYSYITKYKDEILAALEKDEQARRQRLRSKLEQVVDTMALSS
UniProt Q9HCM2, residues 24-1894: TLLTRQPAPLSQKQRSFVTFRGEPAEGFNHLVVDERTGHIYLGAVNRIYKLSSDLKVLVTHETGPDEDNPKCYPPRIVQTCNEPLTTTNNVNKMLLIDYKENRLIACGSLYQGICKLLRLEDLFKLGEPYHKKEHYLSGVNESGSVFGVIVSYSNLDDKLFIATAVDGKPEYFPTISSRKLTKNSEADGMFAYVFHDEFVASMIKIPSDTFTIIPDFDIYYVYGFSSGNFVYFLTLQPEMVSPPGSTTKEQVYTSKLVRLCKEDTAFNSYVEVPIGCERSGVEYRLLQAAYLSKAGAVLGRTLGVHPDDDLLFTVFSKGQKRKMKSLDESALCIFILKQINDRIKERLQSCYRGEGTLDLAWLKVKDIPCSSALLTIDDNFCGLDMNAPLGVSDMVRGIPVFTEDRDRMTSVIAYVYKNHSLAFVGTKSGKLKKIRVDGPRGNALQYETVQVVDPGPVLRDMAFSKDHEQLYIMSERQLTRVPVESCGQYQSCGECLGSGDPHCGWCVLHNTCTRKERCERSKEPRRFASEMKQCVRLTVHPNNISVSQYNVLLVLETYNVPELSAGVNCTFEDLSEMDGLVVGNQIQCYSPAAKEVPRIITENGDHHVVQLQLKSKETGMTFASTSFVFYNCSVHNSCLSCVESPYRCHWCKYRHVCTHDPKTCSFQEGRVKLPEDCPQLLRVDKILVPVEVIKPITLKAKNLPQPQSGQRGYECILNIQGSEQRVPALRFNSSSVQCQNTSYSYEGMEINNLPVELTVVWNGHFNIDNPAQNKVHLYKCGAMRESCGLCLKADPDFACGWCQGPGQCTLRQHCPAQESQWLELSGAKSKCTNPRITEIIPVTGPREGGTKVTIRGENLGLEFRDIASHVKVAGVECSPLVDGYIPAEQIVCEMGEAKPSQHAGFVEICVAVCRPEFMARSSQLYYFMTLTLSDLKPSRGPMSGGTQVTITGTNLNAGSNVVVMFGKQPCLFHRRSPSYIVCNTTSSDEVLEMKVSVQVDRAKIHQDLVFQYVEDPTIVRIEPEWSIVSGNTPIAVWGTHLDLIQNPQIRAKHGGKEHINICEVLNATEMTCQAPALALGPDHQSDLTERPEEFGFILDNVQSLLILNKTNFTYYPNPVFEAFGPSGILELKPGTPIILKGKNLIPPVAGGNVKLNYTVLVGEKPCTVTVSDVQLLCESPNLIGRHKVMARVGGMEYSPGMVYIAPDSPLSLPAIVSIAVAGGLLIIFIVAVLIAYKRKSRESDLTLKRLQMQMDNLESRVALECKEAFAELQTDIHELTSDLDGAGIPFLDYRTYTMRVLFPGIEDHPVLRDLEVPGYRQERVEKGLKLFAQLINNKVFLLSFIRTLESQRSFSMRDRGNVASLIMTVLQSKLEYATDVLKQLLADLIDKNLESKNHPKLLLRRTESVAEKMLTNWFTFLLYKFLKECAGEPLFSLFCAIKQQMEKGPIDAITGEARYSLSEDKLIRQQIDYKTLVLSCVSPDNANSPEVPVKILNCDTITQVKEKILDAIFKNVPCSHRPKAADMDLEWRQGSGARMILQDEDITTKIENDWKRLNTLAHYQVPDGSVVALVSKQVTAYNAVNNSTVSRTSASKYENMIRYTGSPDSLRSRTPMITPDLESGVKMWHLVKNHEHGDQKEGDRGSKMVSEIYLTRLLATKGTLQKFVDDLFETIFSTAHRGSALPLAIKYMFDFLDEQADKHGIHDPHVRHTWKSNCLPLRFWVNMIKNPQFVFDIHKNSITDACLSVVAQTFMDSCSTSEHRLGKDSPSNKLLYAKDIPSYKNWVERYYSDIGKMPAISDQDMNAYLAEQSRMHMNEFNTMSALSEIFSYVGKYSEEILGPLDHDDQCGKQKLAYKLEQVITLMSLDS
UniProt O14786, residues 22-923: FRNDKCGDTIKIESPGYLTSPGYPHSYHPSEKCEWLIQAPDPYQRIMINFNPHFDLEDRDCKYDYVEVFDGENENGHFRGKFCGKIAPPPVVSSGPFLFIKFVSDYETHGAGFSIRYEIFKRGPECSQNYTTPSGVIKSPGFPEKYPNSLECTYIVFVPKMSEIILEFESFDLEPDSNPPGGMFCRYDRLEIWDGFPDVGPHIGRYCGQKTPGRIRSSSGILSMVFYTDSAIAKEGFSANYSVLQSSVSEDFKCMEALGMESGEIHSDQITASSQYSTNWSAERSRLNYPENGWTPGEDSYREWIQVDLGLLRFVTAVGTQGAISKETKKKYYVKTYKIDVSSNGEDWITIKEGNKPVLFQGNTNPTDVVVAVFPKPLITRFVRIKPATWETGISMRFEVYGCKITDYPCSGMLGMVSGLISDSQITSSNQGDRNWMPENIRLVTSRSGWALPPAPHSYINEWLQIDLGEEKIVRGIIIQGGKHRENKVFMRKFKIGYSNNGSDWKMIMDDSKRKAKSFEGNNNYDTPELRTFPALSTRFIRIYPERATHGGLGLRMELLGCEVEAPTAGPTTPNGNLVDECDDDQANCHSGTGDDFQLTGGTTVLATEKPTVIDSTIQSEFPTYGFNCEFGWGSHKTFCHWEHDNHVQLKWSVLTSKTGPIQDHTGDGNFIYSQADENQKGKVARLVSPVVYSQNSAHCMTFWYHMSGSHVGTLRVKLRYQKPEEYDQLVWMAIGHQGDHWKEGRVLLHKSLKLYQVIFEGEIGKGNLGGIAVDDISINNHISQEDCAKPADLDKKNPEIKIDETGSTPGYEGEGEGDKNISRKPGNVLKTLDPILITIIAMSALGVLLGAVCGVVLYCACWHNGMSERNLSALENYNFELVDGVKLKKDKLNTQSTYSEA

Assays:
[1] = biological target: Plexin-A1 (human (endogenous in U373MG and U118MG)) (UniProt Q9UIW2); test: co-IP; immunoprecipitation of PlexA1 from U373MG cells stimulated with Sema3A (100 ng/ml) or VEGF (100 ng/ml); immunoblot for NRP1 and PlexA4
[2] = biological target: Plexin-A1 (human (endogenous in U373MG and U118MG)) (UniProt Q9UIW2); test: proximity ligation; in situ proximity ligation assay (Duo-link system, Sigma-Aldrich) on U373MG cells; vehicle treated cells as control condition
[3] = biological target: Plexin-A1 (human (endogenous in U373MG and U118MG)) (UniProt Q9UIW2); test: proximity ligation; proximity ligation assay on tumor tissue sections of subcutaneous U118MG-Luc xenografts in mice

binding [1]	binding [2]	binding [3]	Substance
binds			Plexin-A4 (from UniProt Q9HCM2 24-1894) (receptor)
binds	binds	binds	Neuropilin-1 (from UniProt O14786 22-923) (receptor)
